Experimental data from PubChem BioAssay AID504444 (National Center for Advancing Translational Sciences (NCATS), 2011).
The campaign covered roughly 360,000 compounds. About 7,500 (2.1%) were called active. This list was built around the results that the source calls inconclusive (neither active nor inactive); the mix of calls is not that of the screen. The call rests on the fitted dose curve; in most records, active means well fitted inhibition curve with a large enough effect; inconclusive means small, poorly fitted or top-dose-only effect, or effect the other way; inactive means flat fitted curve, though single readings scatter. Potencies of inconclusive entries are doubtful fits and often do not repeat.

experiment: Nrf2 qHTS screen for inhibitors; settings: A549 ARE-Fluc reporter, luciferase luminescence, 18-24 h; activity change, negative = inhibition: at 46 µM (top of the series); further: nearly all actives have a fitted effect of over 60% in size
How it was run: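 Reporter: ARE-Fluc in A549. Exposure: 18-24 h, 37 °C, 5% CO2, 5% FBS OPTI-MEM. Readouts: fluorescent cytotoxicity (CellTiter-Fluor), then luminescent Nrf2 signal after BugLite.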
On the % scale 0 is the no-effect control and ±100 the full control effect; potency means the concentration at half of the fitted maximal effect.

Row | SMILES | Potency | activity change, negative = inhibition
1 | O=C(C1COc2cc(S(=O)(=O)Nc3ccc(Cl)cc3)ccc2O1)N1CCCC1 (stereo unspecified) | active: 25.9 µM | 
2 | COc1ccccc1N1CCN(C(=O)CSc2nc(C)c(Cc3ccccc3)c(=O)[nH]2)CC1 | inconclusive: 14.6 µM [falling, partial curve] | 
3 | O=C(Cc1cccc(NC(=O)C2CCCN(C(=O)CCc3ccccc3)C2)c1)Nc1cccc(C(=O)N2CCCCC2)c1 (stereo unspecified) | inconclusive: 20.6 µM [falling, single point] | 
4 | Cc1sc(NC(=S)NC(=O)CCc2ccccc2)c(C(N)=O)c1C | inconclusive: 0.517 µM [activator, full curve] | 
5 | COc1cccc(C2C(C#N)=C(N)OC3=C2C(=O)CC(c2ccco2)C3)c1OCc1ccc(F)cc1 (stereo unspecified) | inconclusive: 20.6 µM [falling, partial curve, poor fit] | 
6 | CCc1ccc(Nc2n[n+](-c3ccccc3)c(-c3cccc(C)c3)s2)cc1 | inconclusive: 29.1 µM [falling, single point] | 
7 | CN1CCN(CCCNC(=O)c2ccc3c(Cl)c4c(nc3c2)CCCC4)CC1 |  | inactive: -10.7%
8 | O=C(NCc1ccco1)c1nc2c(nnn2Cc2cccc(Cl)c2)c(=O)[nH]1 | inconclusive: 29.1 µM [falling, single point] | 
9 | Cc1ccccc1NC(=S)N(C)Cc1cn(C)c2ccccc12 | inconclusive: 8.2 µM [falling, partial curve, poor fit] | 
10 | Cc1ccc(C)c(N2CCN(S(=O)(=O)c3ccc4c(c3)CC(C)N4C(=O)C3CC3)CC2)c1 (stereo unspecified) | inconclusive: 29.1 µM [falling, single point] | 
11 | Cc1ccc(C(=O)COc2ccc3c(C)cc(=O)oc3c2)cc1 | inconclusive: 20.6 µM [falling, single point] | 
12 | COc1ccc(C(=O)C2CCCN(S(=O)(=O)C(C)C)C2)c(C)c1 (stereo unspecified) | inconclusive: 2.59 µM [falling, full curve, poor fit] | 
13 | CCc1sc(C(=O)Nc2ccc3nc(C)sc3c2)cc1C | inconclusive: 6.51 µM [activator, single point] | 
14 | O=C(/C=C/Nc1ccc(F)c(F)c1)c1ccc(Br)cc1 | inconclusive: 7.31 µM [activator, partial curve] | 
15 | CCc1ccc(N2CCN(C(=O)c3ccc(OC)c(OC)c3)CC2)cc1 | inconclusive: 16.4 µM [falling, single point] | 
16 | CC(=O)Nc1ccc(-c2ccc(NC(C)=O)cc2)cc1 | inconclusive: 20.6 µM [activator, partial curve] | 
17 | Cc1ccc(C(=O)N2CCC(C(=O)c3ccc(F)cc3)CC2)cc1 | inconclusive: 23.1 µM [falling, partial curve, poor fit] | 
18 | CN(C)C(=O)N1CCN(S(=O)(=O)c2ccc3ccccc3c2)CC1 | inconclusive: 23.1 µM [falling, single point] | 
19 | O=C(CC(=O)c1ccccc1)Nc1cccnc1 | inconclusive: 5.17 µM [activator, single point] | 
20 | O=C(OCc1ccc(F)cc1)c1ccc2c(c1)-c1ccccc1C2=O |  | inactive: -14%
21 | CCOC(=O)/C(C#N)=C/NC(=O)NC(C)(C)C |  | inactive: -13%

Part of the list above in order of length of the SMILES, low to high.
Row | SMILES | Potency | activity change, negative = inhibition
21 | CCOC(=O)/C(C#N)=C/NC(=O)NC(C)(C)C |  | inactive: -13%
8 | O=C(NCc1ccco1)c1nc2c(nnn2Cc2cccc(Cl)c2)c(=O)[nH]1 | inconclusive: 29.1 µM [falling, single point] | 
5 | COc1cccc(C2C(C#N)=C(N)OC3=C2C(=O)CC(c2ccco2)C3)c1OCc1ccc(F)cc1 (stereo unspecified) | inconclusive: 20.6 µM [falling, partial curve, poor fit] | 

Following part

Row | SMILES | Potency | activity change, negative = inhibition
22 | O=C(C1CCCN(S(=O)(=O)c2cccs2)C1)N1CCN(c2ccccc2F)CC1 (stereo unspecified) | inconclusive: 20.6 µM [falling, single point] | 
23 | CC(=O)c1ccc(NC(=O)c2ccc(CNc3c(N4CCOCC4)c(=O)c3=O)cc2)cc1 |  | inactive: 2.41%
24 | Cc1[nH]n(-c2ccccc2)c(=O)c1/C=N/NC(=O)c1cccc(F)c1 | active: 7.31 µM | 
25 | C=CC(=O)N=c1sc2ccccc2n1-c1ccccc1 |  | inactive: -1.27%
26 | COc1cccc(C2C(C#N)=C(N)SC(c3ccccc3)C2[N+](=O)[O-])c1 (stereo unspecified) | inconclusive: 23.1 µM [falling, single point] | 
27 | Cn1cccc1C(=O)NC(=O)COC(=O)c1ccc(S(C)(=O)=O)cc1 | inconclusive: 1.84 µM [activator, full curve, poor fit] | 
28 | COc1cccc(CN2C(=O)C3(SCC(=O)N3c3ccc(F)cc3)c3ccccc32)c1 (stereo unspecified) | inconclusive: 29.1 µM [falling, single point] | 
29 | CN(C(=S)NC(=O)c1ccccc1Br)C1CCCCC1 | inconclusive: 29.1 µM [activator, single point] | 
30 | NC(=O)c1cc(S(=O)(=O)Nc2cccc(Cl)c2)cs1 | inconclusive: 5.8 µM [activator, partial curve, poor fit] | 
31 | Cc1cc(Cl)ccc1OCC(=O)Nc1ccc(CN2CCOCC2)cc1 | inconclusive: 29.1 µM [falling, single point] | 
32 | Cc1ccc(NC(=O)N2CCc3ccccc3C2)cc1C | inconclusive: 6.51 µM [activator, partial curve, poor fit] | 
33 | NC(=O)c1ccc(NC(=O)c2cccc(Oc3ccccc3)c2)cc1 | inconclusive: 3.26 µM [activator, partial curve, poor fit] | 
34 | CCCN1CN=C(Nc2nc3ccccc3o2)NC1 | inconclusive: 6.51 µM [activator, single point] | 
35 | CCc1ccccc1NC(=O)N1CC(CC)Oc2ccc(Cl)cc21 (stereo unspecified) | inconclusive: 9.2 µM [activator, partial curve, poor fit] | 
36 | CCCN1CCC(=O)N([C@H](CSc2ccc(C)cc2)c2ccccc2)CC1 | inconclusive: 29.1 µM [activator, single point] | 
37 | O=C(Nc1cccc(Br)c1)c1cccc(OC(=S)N2CCOCC2)c1 | active: 16.4 µM | 
38 | COc1ccc(Nc2nc(N)nc(CSc3nnc(C)s3)n2)cc1 | inconclusive: 5.8 µM [activator, partial curve, poor fit] | 
39 | CCc1nc(Sc2nc(C)cc(C)n2)c2oc3ccccc3c2n1 | inconclusive: 0.651 µM [activator, full curve] | 
40 | CNc1nc(Nc2ccc(C)c(Cl)c2)c2cnn(C)c2n1 | inconclusive: 10.3 µM [falling, partial curve, poor fit] | 
41 | O=C(CN1C(=O)c2ccccc2S1(=O)=O)N1CCCCC1 | inconclusive: 23.1 µM [activator, single point] | 
